These are yes or no findings as the source states them, for the method shown. In cells and extracts the contact can be indirect. Some results given as binding are weak or reduced against the parent protein; the word gives no strength. Where a sequence is shown, tags or fusion partners need not be part of it.
Assays:
Assay in all cases: co-IP; GFP-tagged bait pulled down with agarose GFP-traps (Chromotek) from at least 500 ug of worm nuclear extract (pooled nuclear-soluble and chromatin-bound fractions); Buffer D (20 mM HEPES pH 7.9, 150 mM KCl, 20% glycerol, 0.2 mM EDTA, 0.2% Triton X-100, protease inhibitor) for incubation and washes; endogenous PARG-1 detected by western blot; untagged wild-type worms as negative control
GFP::SYP-3 (C. elegans) = target: T1, GFP::SYP-3 (C. elegans) (UniProt O62238)
T1 sequence: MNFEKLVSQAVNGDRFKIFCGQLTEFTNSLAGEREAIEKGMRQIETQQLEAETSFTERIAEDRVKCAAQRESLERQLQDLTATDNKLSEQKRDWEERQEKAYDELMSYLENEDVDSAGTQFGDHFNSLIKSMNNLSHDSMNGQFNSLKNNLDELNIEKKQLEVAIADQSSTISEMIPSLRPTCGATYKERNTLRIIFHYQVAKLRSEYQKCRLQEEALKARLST

HTP-1::GFP (C. elegans) = target: T2, HTP-1::GFP (C. elegans) (UniProt Q20305)
T2 sequence: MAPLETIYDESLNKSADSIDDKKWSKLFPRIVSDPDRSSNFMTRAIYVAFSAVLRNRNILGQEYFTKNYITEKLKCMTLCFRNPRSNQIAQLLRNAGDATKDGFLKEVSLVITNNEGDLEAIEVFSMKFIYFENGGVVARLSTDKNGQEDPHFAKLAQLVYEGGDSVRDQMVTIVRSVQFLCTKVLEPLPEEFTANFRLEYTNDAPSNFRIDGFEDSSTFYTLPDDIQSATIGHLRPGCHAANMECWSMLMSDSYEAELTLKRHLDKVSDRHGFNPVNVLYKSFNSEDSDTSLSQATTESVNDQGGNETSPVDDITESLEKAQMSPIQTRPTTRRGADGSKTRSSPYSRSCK

HTP-3::GFP (C. elegans) = target: T3, HTP-3::GFP (C. elegans) (UniProt O01820)
T3 sequence: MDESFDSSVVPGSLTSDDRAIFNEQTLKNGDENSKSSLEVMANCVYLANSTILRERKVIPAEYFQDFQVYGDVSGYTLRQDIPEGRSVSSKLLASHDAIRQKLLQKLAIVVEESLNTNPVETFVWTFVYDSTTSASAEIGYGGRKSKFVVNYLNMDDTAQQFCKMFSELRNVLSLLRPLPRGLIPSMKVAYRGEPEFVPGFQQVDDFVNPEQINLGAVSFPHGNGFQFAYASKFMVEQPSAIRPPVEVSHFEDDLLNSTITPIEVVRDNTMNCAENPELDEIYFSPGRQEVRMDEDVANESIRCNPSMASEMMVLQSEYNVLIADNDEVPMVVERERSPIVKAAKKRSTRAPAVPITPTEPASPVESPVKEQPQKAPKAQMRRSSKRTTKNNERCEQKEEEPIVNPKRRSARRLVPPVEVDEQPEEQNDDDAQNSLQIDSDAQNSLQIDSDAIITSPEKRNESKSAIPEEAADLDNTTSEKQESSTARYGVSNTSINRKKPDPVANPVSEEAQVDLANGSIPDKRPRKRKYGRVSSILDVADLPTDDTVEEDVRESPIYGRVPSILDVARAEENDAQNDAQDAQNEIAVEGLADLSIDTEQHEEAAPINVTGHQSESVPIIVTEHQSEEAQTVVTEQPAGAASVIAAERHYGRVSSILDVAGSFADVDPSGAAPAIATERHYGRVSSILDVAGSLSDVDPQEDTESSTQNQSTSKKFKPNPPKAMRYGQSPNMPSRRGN

MRE-11::GFP (C. elegans) = target: T4, MRE-11::GFP (C. elegans) (UniProt Q23255)
T4 sequence: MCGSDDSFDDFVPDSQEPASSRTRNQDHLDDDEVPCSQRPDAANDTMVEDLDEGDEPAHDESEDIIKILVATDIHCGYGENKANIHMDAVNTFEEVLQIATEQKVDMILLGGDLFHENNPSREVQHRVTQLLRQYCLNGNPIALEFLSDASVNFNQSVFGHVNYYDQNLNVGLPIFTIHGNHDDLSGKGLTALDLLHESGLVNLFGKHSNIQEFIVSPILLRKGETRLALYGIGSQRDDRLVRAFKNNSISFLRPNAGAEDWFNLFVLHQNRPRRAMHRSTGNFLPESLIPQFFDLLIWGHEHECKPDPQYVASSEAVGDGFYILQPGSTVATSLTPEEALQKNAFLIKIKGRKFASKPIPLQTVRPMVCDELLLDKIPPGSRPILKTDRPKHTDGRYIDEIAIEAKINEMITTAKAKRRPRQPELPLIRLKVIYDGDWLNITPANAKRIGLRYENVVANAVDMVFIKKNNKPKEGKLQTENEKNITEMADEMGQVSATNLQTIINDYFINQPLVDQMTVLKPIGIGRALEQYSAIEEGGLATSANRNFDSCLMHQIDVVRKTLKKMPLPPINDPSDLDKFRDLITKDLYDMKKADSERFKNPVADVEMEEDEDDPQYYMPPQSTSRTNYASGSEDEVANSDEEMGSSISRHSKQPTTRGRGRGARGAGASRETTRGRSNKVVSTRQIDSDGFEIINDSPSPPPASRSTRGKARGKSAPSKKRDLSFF

REC-8::GFP (C. elegans) = target: T5, REC-8::GFP (C. elegans) (UniProt Q9XUB3)
T5 sequence: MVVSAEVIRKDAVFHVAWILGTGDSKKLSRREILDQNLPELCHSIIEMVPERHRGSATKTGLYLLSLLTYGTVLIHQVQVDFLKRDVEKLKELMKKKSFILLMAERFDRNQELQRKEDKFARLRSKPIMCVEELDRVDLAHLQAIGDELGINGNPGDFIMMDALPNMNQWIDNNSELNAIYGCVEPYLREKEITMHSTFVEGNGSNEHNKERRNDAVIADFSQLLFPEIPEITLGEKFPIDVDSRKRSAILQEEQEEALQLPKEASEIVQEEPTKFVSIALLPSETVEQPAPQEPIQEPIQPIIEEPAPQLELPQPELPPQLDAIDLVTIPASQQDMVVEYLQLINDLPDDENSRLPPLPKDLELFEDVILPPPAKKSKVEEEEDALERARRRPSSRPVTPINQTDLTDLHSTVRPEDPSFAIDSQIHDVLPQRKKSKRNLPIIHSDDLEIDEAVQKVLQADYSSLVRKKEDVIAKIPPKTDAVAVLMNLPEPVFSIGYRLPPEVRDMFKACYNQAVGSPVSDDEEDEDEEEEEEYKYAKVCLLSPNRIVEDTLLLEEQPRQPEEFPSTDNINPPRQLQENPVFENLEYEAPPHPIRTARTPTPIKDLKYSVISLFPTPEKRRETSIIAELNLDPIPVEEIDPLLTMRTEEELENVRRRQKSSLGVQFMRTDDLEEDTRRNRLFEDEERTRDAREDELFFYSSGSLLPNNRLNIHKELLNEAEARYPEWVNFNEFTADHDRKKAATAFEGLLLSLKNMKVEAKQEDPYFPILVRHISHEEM

- binding (GFP::SYP-3 (C. elegans)): binds
- binding (HTP-1::GFP (C. elegans)): binds
- binding (HTP-3::GFP (C. elegans)): binds
- binding (MRE-11::GFP (C. elegans)): binds
- binding (REC-8::GFP (C. elegans)): binds
B1: PARG-1 (poly(ADP-ribose) glycohydrolase), endogenous (protein, UniProt Q867X0 1-781)
chain: MSKKFIELGDPVTQDEKDYEDYVGVGFAHQVPTMKRRKLTEHGNTTESKEDPEEPKSRDVFVSSQSSDESQEDSAENPEIAKEVSENCENLTETLKISNIESLDNVTERSEHTLDNHKSTEPMEEDVNNKSNIDVAINSDEDDELVLEENNKEMRDGEQVQQDLFADDQELIEYPGIMKDTTTQLDITDSEVETAQKMEMIEETEADSTFVGEDSKNQRQSGTTSDEVDADSQINLATKTVRTSSSSFLSTVSTCEAPAKGRARMYQKELEKHVIAFTEGNLTLQPDLNKVDPDRNYRYCTIPNFPASQGKLREDNRYGPKIVLPQRWREFDSRGRRRDSYFYFKRKLDGYLKCYKTTGYFMFVGLLHNMWEFDPDITYKLPALEMYYKEMSELVGREEVLEKFARVARIAKTAEDILPERIYRLVGDVESATLSHKQCAALVARMFFARPDSPFSFCRILSSDKSICVEKLKFLFTYFDKMSMDPPDGAVSFRLTKMDKDTFNEEWKDKKLRSLPEVEFFDEMLIEDTALCTQVDFANEHLGGGVLNHGSVQEEIRFLMCPEMMVGMLLCEKMKQLEAISIVGAYVFSSYTGYGHTLKWAELQPNHSRQNTNEFRDRFGRLRVETIAIDAILFKGSKLDCQTEQLNKANIIREMKKASIGFMSQGPKFTNIPIVTGWWGCGAFNGDKPLKFIIQVIAAGVADRPLHFCSFGEPELAAKCKKIIERMKQKDVTLGMLFSMINNTGLPHKHFEFYVFDRISTYLSSSEDVESSKSSPSVSRA

Source: article PMC7519143
